Results are given in words; binding and its absence hold for the method and conditions named. A result given as binding can be weak or reduced; the word gives no strength.
Columns and labels:
Assay in all cases: two-hybrid; bacterial two-hybrid (BACTH) in E. coli BTH101; fragments fused N- or C-terminally to T25 and T18 of CyaA; blue colour on X-Gal/IPTG plates and β-galactosidase specific activity
[1] = molecular target: C-terminal domain of the TonB protein MXAN_0276 (MXAN_0276 167-269) (M. xanthus) (UniProt Q1DFL6)
[2] = molecular target: C-terminal domain of the TonB protein MXAN_0820 (MXAN_0820 163-266) (M. xanthus) (UniProt Q1DE40)
[3] = molecular target: C-terminal domain of TonB1 of the Ton^Oar system (TonB1 147-250) (M. xanthus)

Measured: binding

B1: periplasmic N-terminal region of Oar that bears NTE and plug domains (Oar 24-248) (domain or fragment, UniProt P38370 24-248)
chain: AFAQSSTIIGTVIDAQSRQPAADVVVTATSPNLQGEQTVVTDAQGNYRIPQLPPGDYTLRFEKEQFKPYARSAIQLRLNRTIRVNVELLPEALGEVVEIVGAPPTIDVGSTTMGVNVDQEFIKRIAVARPGGKGGATRSFESLAELAPGAQNDNYGVSINGSTSPENGYVVDGLSTNDPAFGVNASPLSIEFVQDVNIITGGYMPEFGRSTGGVINAVTRSGSNE
binds: all assays above

— article PMC6434023, “A TonB-dependent transporter is required for secretion of protease PopC across the bacterial outer membrane” (Nature Communications, 2019)
